Reference: patent publication US20220056118A1 (UNIVERSITY OF BRITISH COLUMBIA, published 2022)
Numbering of substitutions follows the chain as printed. No constants are given. Whether binding was seen depends on the method and setting. Some entries that bind do so weakly or less than the wild type.

Sequences of proteins named here, by UniProt entry; tags and fusion partners are left off. A change or cut given only in a name is not applied to a line headed by its entry.
UniProt P02769: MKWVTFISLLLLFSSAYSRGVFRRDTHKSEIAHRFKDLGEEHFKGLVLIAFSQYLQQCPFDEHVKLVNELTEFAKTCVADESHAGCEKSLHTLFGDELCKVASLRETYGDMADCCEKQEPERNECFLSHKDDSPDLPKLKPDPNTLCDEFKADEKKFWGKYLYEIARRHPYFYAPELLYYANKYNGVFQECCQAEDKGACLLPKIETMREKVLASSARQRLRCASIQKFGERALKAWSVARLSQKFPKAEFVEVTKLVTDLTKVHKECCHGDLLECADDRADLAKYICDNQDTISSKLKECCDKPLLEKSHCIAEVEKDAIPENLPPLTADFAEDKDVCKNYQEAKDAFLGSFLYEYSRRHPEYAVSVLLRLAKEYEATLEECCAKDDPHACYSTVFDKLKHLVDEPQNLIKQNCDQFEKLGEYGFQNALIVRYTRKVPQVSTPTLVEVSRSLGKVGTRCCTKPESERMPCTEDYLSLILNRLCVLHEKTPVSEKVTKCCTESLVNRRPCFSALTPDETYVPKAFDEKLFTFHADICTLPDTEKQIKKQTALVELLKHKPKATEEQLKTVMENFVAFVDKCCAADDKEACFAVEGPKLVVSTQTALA

B1: rabbit monoclonal antibody 1 (1H3-1K3) (antibody, V domains shown)
VH: QSVEESGGRLVTPGTPLTLTCTVSGFSLSRYYMTWVRQAPGKGLEYIGVIIPGGTTYYASWAKGRFTISKTSTTVDLRITSPTTEDTATYFCAGGPTGNSHFTLWGQGTLVTVS
VL: VMTQTPSSKSVPVGGTVTINCQASESVYNNNHLSWYQQKSGQPPKLLIYEASKLESGVPPRFKGSGSGTQFTLTISDVVCDDAATYYCSGYKRVTTDGIAFGGGTEVVVK
notes: Recombinant; also called Rabbit 1; clone 1
B2: mouse monoclonal antibody 3E8 (antibody, V domains shown)
VH: DVKLVESGGGLVKLGGSLKLSCAASGFTFSSYYMSWVRQTPEKRLELVATINSNGGSTYYPDTVKGRITISRDNAKNTLQLQMSSLRSEDTALYYCVRQNYEGAYWGQGTLVTVSA
VL: DVLMTQTPLSLPVTLGDQASISCRSSQSIVHSNGNTYLEWYLQKPGQSPKLLIYKVSNRFSGVPDRFSGSGSGTDFTLKISRVEAEDLGVYYCFQSSHVPWTFGGGTKLEIK
notes: Mouse hybridoma antibody; also called Mouse 3E8
B3: mouse monoclonal antibody 2F7 (antibody, V domains shown)
VH: B2 VH
VL: B2 VL
notes: Mouse hybridoma antibody; also called Mouse 2F7
B4: rabbit monoclonal antibody 14 (14H1-14K2) (antibody, V domains shown)
VH: QEQLEESGGDLVKPEGSLTLTCTASGFSFSSNYVMCWVRQAPGKGLEWVACIWFAGIVDTTYYATWAKGRFTISKTSSTTVTLQMTSLTAADTATYFCARNPVGSVNLWGQGTLVTVS
VL: VMTQTPSSKSVPVGGSVTINCQASESVYSNNRLSWYQQKPGQPPKLLIYYASTLESGVPSRFKGSGFGTHFTLTISGAQCDDAATYYCAGWRGARTDGVDFGGGTEVVVK
notes: Recombinant; also called Rabbit 14; clone 14
B5: rabbit monoclonal antibody 17 (17H3-17K3) (antibody, V domains shown)
VH: QEQLVESGGGLVQPGASLTLTCTASGFSFSSSYVMCWVRQAPGKGLEWITCSDTGINTWYASWAKGRFTISKTSSTTVTLQMTSLTAADTATYFCARRYTGDTYLGNFNLWGQGTLVTVS
VL: AQVLTQTPASVSAAVGGTVTINCQASQSVYKNNYLSWYQQKPGQPPKLLIYKASTLASGVPSRFKGSGSGTQFTLTISDVQCDDAATYYCAGGWRSLNAFGGGTEVVVK
notes: Recombinant; also called Rabbit 17; clone 17
B6: rabbit monoclonal antibody 38 (38H1-38K1) (antibody, V domains shown)
VH: B1 VH with L28F, R30A, Y46F, I50T, G53I, T55R, D76H, R78K, T89A
VL: B1 VL with G15D, H32Q, S40P, E50Q, P60S, S89A, R93S, V94P
notes: Recombinant; also called clone 38
B7: mouse monoclonal antibody 3F11 (antibody, V domains shown)
VH: B2 VH with G10D, T50V, S53T, I68F, Q80Y, R87K
VL: B2 VL with T14S

molecular target: DAGWGNLc (SEQ ID NO: 9) peptide conjugated to bovine serum albumin (human; bovine) (UniProt P02769); experiment: SPR, peptide-BSA immobilized

binding	Binder
binds	B1
binds	B2
binds	B3
binds	B4
binds	B5

molecular target: HA-tagged Human TDP-43 with a triple missense tandem mutation in the nuclear localization signal (ΔNLS-TDP-43) (human) (UniProt Q13148); experiment: immunocytochemistry, legend of FIG. 6

binding	Binder
binds	B3

molecular target: HA-tagged Human TDP-43 with a triple missense tandem mutation in the nuclear localization signal (ΔNLS-TDP-43) (human) (UniProt Q13148); experiment: summary table; column: Binding to ΔNLS TDP-43 cytoplasmic aggregates

binding	Binder
binds	B6
binds	B2
binds	B3
binds	B7
binds	B4

molecular target: HA-tagged Human TDP-43 with a triple missense tandem mutation in the nuclear localization signal (ΔNLS-TDP-43) (human) (UniProt Q13148); experiment: immunocytochemistry, transfected HEK293FT cells, antibody at 10 ug/ml

binding	Binder
binds	B3

molecular target: HA-tagged Human TDP-43 with a triple missense tandem mutation in the nuclear localization signal (ΔNLS-TDP-43) (human) (UniProt Q13148); experiment: immunocytochemistry, transfected HEK293FT cells, 10 ug/ml; column: Binding to ΔNLS TDP-43 cytoplasmic aggregates

binding	Binder
binds	B6
binds	B2
binds	B3
binds	B7
binds	B4
